Laboratory results: PMC7000802
These are yes or no findings as the source states them, for the method shown. In cells and extracts the contact can be indirect. Some binding calls cover weakened binding; strength is not graded here. Sequences can lack the tags named with a protein.

Target: T1, Flag-IKK2 (IκB kinase 2), O14920
T1 chain: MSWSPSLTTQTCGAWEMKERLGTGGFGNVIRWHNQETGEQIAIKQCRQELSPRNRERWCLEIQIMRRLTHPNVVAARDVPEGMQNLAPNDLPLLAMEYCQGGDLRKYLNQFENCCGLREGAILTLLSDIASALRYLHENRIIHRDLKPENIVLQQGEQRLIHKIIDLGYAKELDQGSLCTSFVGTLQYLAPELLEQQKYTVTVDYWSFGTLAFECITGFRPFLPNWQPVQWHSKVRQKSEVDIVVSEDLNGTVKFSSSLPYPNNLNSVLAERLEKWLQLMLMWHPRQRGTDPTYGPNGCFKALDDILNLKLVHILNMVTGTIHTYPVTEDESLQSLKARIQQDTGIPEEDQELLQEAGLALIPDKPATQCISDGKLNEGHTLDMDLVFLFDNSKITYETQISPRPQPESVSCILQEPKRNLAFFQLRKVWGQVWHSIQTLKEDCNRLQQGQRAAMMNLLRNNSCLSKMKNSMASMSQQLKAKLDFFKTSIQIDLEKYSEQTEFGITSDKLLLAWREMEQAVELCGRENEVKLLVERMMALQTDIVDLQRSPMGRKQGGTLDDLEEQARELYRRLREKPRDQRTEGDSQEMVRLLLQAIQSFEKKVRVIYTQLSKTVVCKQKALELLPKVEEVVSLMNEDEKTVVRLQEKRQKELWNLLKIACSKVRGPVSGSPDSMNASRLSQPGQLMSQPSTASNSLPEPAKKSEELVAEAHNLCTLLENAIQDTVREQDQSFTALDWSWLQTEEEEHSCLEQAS
Assay: co-IP; LMP1-induced interaction of TAK1 with IKK2, with or without NEMO, Supplementary Fig. 2b; legend not shown, method taken from the paper's general co-immunoprecipitation procedure
Conditions: remark: other sources report otherwise

binding: binds
B1: TGFβ-activated kinase 1 (TAK1), O43318 1-606 (enzyme)
chain: MSTASAASSSSSSSAGEMIEAPSQVLNFEEIDYKEIEVEEVVGRGAFGVVCKAKWRAKDVAIKQIESESERKAFIVELRQLSRVNHPNIVKLYGACLNPVCLVMEYAEGGSLYNVLHGAEPLPYYTAAHAMSWCLQCSQGVAYLHSMQPKALIHRDLKPPNLLLVAGGTVLKICDFGTACDIQTHMTNNKGSAAWMAPEVFEGSNYSEKCDVFSWGIILWEVITRRKPFDEIGGPAFRIMWAVHNGTRPPLIKNLPKPIESLMTRCWSKDPSQRPSMEEIVKIMTHLMRYFPGADEPLQYPCQYSDEGQSNSATSTGSFMDIASTNTSNKSDTNMEQVPATNDTIKRLESKLLKNQAKQQSESGRLSLGASRGSSVESLPPTSEGKRMSADMSEIEARIAATTAYSKPKRGHRKTASFGNILDVPEIVISGNGQPRRRSIQDLTVTGTEPGQVSSRSSSPSVRMITTSGPTSEKPTRSHPWTPDDSTDTNGSDNSIPMAYLTLDHQLQPLAPCPNSKESMAVFEQHCKMAQEYMKVQTEIALLLQRKQELVAELDQDEKDQQNTSRLVQEHKKLLDENKSLSTYYQQCKKQLEVIRSQQQKRQGTS
